{"sequences": {"note": "The chains behind the UniProt entries cited, without tags or fusion partners. Residues count along the entry.", "UniProt P02768, 25-609": "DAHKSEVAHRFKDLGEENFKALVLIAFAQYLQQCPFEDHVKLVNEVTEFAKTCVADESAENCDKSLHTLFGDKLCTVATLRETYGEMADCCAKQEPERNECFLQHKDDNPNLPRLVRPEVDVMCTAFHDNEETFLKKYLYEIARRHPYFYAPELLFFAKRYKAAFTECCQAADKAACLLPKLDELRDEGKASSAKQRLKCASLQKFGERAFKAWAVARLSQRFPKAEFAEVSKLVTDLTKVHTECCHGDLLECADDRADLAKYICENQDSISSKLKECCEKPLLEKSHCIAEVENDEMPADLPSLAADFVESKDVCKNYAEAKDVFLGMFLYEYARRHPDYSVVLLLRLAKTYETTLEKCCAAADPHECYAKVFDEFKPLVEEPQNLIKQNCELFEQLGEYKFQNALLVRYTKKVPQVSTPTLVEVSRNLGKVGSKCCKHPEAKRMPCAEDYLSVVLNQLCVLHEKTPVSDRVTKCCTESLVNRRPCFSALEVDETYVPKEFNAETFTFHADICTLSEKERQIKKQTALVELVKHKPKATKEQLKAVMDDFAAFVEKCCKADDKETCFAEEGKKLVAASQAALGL"}, "source": "paper PMC8915595", "about": "“Revisiting the application of Immobilized Artificial Membrane (IAM) chromatography to estimate in vivo distribution properties of drug discovery compounds based on the model of marketed drugs” (ADMET & DMPK, 2020)", "key": {"[1]": {"biological_target": "T1, human serum albumin (HSA) (Homo sapiens, UniProt P02768)", "details": "cited from earlier work"}, "[2]": {"assay": "IAM chromatography on new IAM.PC.DD2 columns (gradient HPLC, CHI (IAM))", "format": "physicochemical", "design": "key to P20511-014-3 CHI (IAM): CHI (IAM) from retention times calibrated to predefined CHI standards", "experimental": "The IAM binding was measured using IAM.PC.DD2 HPLC columns (Regis Technologies, Inc., IL, USA) with dimensions of 100 x 4.6 mm, particle size 10 μm with 300 Å pore size.\nTwo batches of IAM.PC.DD2 columns were studied (R20511-014-3 and P20511-014-3) that had been prepared using the new batches of silica support.\nThe retention times were standardized using the IAM calibration mixture, containing octanophenone, heptanophenone, hexanophenone, valerophenone, butyrophenone, propiophenone, acetophenone, acetanilide and paracetamol. The retention times of the compounds were plotted against the isocratically determined and predefined CHI (IAM) values listed in Table 1. The slope and intercept of the obtained straight line was used to calculate the CHI IAM values of new compounds."}, "[3]": {"biological_target": "T1, human serum albumin (HSA)", "assay": "Protein binding on chemically bonded HSA column (Chiralpak-HSA)", "details": "remeasured in this study, pH 7.4"}}, "data": [{"compound": "COC(=O)C1=C(C)NC(C)=C(C(=O)OC)C1c1ccccc1[N+](=O)[O-]", "note": "[Nifedipine]", "values": [{"measurement": "log K HSA from ref [13]", "setting": "[1]", "value": 3.13}, {"measurement": "P20511-014-3 CHI (IAM)", "setting": "[2]; new IAM.PC.DD2 column batch P20511-014-3, pH 7.4", "value": 28.16}, {"measurement": "R20511-014-3 CHI (IAM)", "setting": "[2]; new IAM.PC.DD2 column batch R20511-014-3, pH 7.4", "value": 28.11}, {"measurement": "log K HSA", "setting": "[3]", "value": 3.37}]}]}
